No constants are given. Whether binding was seen depends on the method and setting. Binding seen in cells or lysates may run through a third protein. For some assays here: Binding can be weak; no strength is given. For some assays here: Where a sequence is shown, tags or fusion partners need not be part of it.
What was measured:
Hrd1a-cYFP (Arabidopsis) = target: T1, Hrd1a-cYFP (Arabidopsis) (UniProt Q9LW77); assay: split reporter; BiFC with split YFP, transient co-expression in tobacco (Nicotiana benthamiana) leaf epidermal cells, confocal microscopy two days after infiltration
T1 sequence: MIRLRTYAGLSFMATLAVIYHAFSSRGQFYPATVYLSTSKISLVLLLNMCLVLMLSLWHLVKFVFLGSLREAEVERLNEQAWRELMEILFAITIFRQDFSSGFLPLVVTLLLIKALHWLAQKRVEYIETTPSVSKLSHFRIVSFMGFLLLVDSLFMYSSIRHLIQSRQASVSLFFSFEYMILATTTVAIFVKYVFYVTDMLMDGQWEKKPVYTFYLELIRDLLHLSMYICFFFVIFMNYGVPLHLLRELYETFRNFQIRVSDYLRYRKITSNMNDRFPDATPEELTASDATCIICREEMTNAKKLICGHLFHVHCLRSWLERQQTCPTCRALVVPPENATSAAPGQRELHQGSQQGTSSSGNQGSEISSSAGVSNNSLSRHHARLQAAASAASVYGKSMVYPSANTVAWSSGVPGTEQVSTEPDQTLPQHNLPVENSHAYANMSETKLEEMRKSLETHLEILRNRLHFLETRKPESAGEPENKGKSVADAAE

Sequences of proteins named here, by UniProt entry; tags and fusion partners are left off. A change or cut given only in a name is not applied to a line headed by its entry.
UniProt Q9SZR6: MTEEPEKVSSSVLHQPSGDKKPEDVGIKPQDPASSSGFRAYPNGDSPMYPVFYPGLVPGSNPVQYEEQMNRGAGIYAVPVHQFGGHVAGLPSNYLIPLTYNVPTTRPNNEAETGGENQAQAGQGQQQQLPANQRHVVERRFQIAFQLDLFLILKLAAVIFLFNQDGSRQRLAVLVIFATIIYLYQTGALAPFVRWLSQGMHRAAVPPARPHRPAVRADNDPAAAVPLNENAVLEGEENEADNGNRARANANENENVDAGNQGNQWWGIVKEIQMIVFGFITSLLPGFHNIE
UniProt F4JX49: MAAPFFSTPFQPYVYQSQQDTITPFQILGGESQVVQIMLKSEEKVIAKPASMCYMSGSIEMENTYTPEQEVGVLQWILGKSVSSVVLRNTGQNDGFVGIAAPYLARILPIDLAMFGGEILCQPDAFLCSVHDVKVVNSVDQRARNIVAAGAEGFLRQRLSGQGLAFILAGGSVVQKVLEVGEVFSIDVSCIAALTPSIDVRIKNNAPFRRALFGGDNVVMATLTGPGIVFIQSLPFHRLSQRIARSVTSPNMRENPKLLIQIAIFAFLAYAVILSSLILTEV
UniProt F4JP55: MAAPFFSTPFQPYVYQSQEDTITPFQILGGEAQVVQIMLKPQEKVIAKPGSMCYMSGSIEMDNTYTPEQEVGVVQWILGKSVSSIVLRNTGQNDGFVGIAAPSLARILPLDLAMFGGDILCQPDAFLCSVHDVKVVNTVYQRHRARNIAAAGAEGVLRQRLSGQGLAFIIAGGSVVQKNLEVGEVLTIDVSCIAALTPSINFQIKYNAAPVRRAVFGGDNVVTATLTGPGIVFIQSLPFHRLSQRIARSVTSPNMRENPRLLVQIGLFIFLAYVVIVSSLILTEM

[1] = target: EBS7 (EMS-mutagenized Bri1 Suppressor7) (Arabidopsis (endogenous in seedlings)) (UniProt Q9SZR6); assay: co-IP; anti-EBS7 antibody and protein-A/G-agarose, total proteins of 10-day-old wild-type Arabidopsis seedlings (also of the hrd1a hrd1b bri1-9 mutant); 50 mM Tris-HCl pH 8.0, 150 mM NaCl, 5 mM EDTA, 0.1% Triton X-100, 0.2% Nonidet P-40, 4 °C, 8 h; immunoblot with anti-EBS7, anti-PAWH, anti-Hrd1a

## nYFP-PAWH2 (Arabidopsis)
Hrd1a-cYFP (Arabidopsis)
  binding: no binding

## Protein Associated With Hrd1-2 (PAWH2) (from UniProt F4JX49)
[1]
  binding: binds

## nYFP-PAWH1 (Arabidopsis)
Hrd1a-cYFP (Arabidopsis)
  binding: no binding

## Protein Associated With Hrd1-1 (PAWH1) (from UniProt F4JP55)
[1]
  binding: binds

B1: Hrd1a (protein, UniProt Q9LW77 1-492)
chain: MIRLRTYAGLSFMATLAVIYHAFSSRGQFYPATVYLSTSKISLVLLLNMCLVLMLSLWHLVKFVFLGSLREAEVERLNEQAWRELMEILFAITIFRQDFSSGFLPLVVTLLLIKALHWLAQKRVEYIETTPSVSKLSHFRIVSFMGFLLLVDSLFMYSSIRHLIQSRQASVSLFFSFEYMILATTTVAIFVKYVFYVTDMLMDGQWEKKPVYTFYLELIRDLLHLSMYICFFFVIFMNYGVPLHLLRELYETFRNFQIRVSDYLRYRKITSNMNDRFPDATPEELTASDATCIICREEMTNAKKLICGHLFHVHCLRSWLERQQTCPTCRALVVPPENATSAAPGQRELHQGSQQGTSSSGNQGSEISSSAGVSNNSLSRHHARLQAAASAASVYGKSMVYPSANTVAWSSGVPGTEQVSTEPDQTLPQHNLPVENSHAYANMSETKLEEMRKSLETHLEILRNRLHFLETRKPESAGEPENKGKSVADAAE
[1]
  binding: binds

Source: PMC6677890
